Data reported in PubChem BioAssay AID1471 (National Center for Advancing Translational Sciences (NCATS), 2008).
“And” between values parts separate entries of the source, which are not always exact repeats. Identical values can stand only once. Hit rate of the full screen: of about 230,000 compounds, about 310 (0.13%) were called active. Not shown: some 2% with an inconclusive outcome. Calls follow the shape of the dose curve; as a rule, active = well fitted activation curve with a large enough effect; inconclusive = small, poorly fitted or top-dose-only effect; inactive = no such curve, though single readings can be large or run the other way. This is a selection; strong and weak results do not stand in their true shares. The source gives no active or inactive call for entries shown without one. A structure can be active in one record and inactive in another. Non-standard residues stand in square brackets, D forms with d. Residues, ends and D or L forms follow the SMILES beside them. Nle = CCCC[C@H](N)C(=O)O

Assay: qHTS Multiplex Assay to Identify Dual Action Probes in a Cell Model of Huntington: Cytoprotection (ATP); also: nearly all actives have a fitted effect of over 45% in size;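 as to cytoprotection (ATP increase): toxic huntingtin expression switched on by the ecdysone agonist tebufenozide; % of control where 0% means no effect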
Conditions: PC12 HTT-Q103 induced, ATP luminescence, 40 h; cytoprotection (ATP increase): at 56.4 µM (top of the series) unless noted
Text: NIH Chemical Genomics Center [NCGC]
NIH Molecular Libraries Probe Production centers Network [MLPCN]
Assay Submitter (PI): Wei Zheng
Huntington's disease is a neurodegenerative disorder caused by a trinucleotide repeat expansion in Exon 1 of the Huntingtin gene. The CAG trinucleotide encodes glutamine and polyglutamine expansions cause cell death in selective areas of the brain. Huntington polyglutamine repeats have the tendency to form aggregates which are observable in later stages of the disease. The exact nature of the aggregates, whether toxic, protective, or insignificant, is unclear.
A stable PC12 cell line containing a gene fusion of Exon 1 of the Huntingtin gene linked to GFP under the control of the inducible ecdysone promoter were used as the cell-based model of Huntington Disease for high throughput screening. Exon 1 of the Huntingtin gene contained an expansion of 103 polyglutamines (Q103) which, when expressed, caused cell death and distinct, bright GFP aggregates. The amount of cell death and the size and intensity of GFP aggregates increased over time and induction level. The cell death were quantified with a measurement of ATP content in the cells. A maximal 40-50% of cell death was observed when the Huntington gene was induced in this cell line.
We optimized this assay in a homogeneous 1536 well format. A quantitative high throughput screen (qHTS) was conducted on the PC12 cells which were induced to express the toxic fusion construct. Small molecules which prevented cell death were identified by using a luminescent ATP quantification method (Perkin Elmer's ATPlite).
PC12 cells stably containing a construct with an ecdysone inducible promoter expressing GFP fused to the exon 1 of HTTQ103 (Huntington protein which containing a 103 ployglutamine expansion) were used.
NCGC Assay Protocol Summary:
Sequence, Parameter, Description
1, Reagent, 5 uL 1500 cells/well 1536 TC treated White clear bottom plate
2, Compound, 23 nL Tebufenozide inducer (100 nM final) to all columns
3, Compound, 23 nL 40 uM to 0.5 nM Libraries
5, Reagent, 5 ul ATPLite cell death assay reagent
6, Detector, 4 sec integration with a Viewlux Luminescent
Media consisted of phenol red free DMEM + 5% equine serum (Hyclone # SH30072.03 ), 5% supplemented Bovine Calf Serum (Hyclone # SH30074.03 ), 1x pen/strep, no G418
Control columns: 1 = DMSO, 2= 2 uM teb dilns (1:1), 4 = 100 nM Teb inducer. Sample columns received 100 nM Teb.
Potency is read from the fitted curve at half-maximal effect.

Going from Cc1cc(=O)oc2cc(OCC(=O)Nc3ccc(S(=O)(=O)N(C)C)cc3)ccc12 to Cc1ccc(NC(=O)Cc2nnc(SCC(=O)Nc3ccccc3)n2C)cc1, the cytoprotection (ATP increase) falls from 230% [at 10 µM] to 147% [at 10 µM].

Compared with COC(=O)CSc1nc(C)c(C(C)=O)cc1C#N, CC(=O)N/C(=C/c1ccc2c(c1)OCO2)C(=O)NCC(=O)O is higher in cytoprotection (ATP increase): 6.3% [at 10 µM] for the first, 119% [at 10 µM] for the second.

First: CCC(C)NC(=S)N1CCN(Cc2ccccc2)CC1 (stereo not given)
Second: COc1ccc(F)c(-c2nc(CN3CCC(c4ccccc4)CC3)c(C)o2)c1
The cytoprotection (ATP increase) of the first is lower: 218% [at 10 µM] for the first, 264% [at 10 µM] for the second.

First: CC1CCN(c2ccc(C(=O)NCc3ccc4c(c3)OCO4)cc2[N+](=O)[O-])CC1
Second: O=C(NC(=S)Nc1cccc(S(=O)(=O)NC2=NCCC2)c1)c1cc(-c2ccco2)nc2ccccc12
The cytoprotection (ATP increase) of the first is higher: 307% [at 10 µM] for the first, 255% [at 10 µM] for the second.

Compared with CCC(=O)OC1CCC2C3CCc4cc(O)ccc4C3CC[C@]12C (stereo not given in full), CC(=O)Oc1ccc2c(c1)CCC1C2CC[C@]2(C)C(OC(C)=O)CCC12 (stereo not given in full) is higher in cytoprotection (ATP increase): -274% for the first, -159% for the second.

Going from NC(Cc1c[nH]c2ccccc12)C(=O)O (stereo not given) to C=C(C(=O)OCC)C(=O)c1ccccc1, the cytoprotection (ATP increase) rises from -60.3% to -44.9%.

Going from COc1ccc(-c2cccc([C@H]3[C@@H]4C=CC[C@@H](C)[C@@H]4C(=O)N3Cc3ccccc3)c2)cc1 to C[C@@H]1CC=C[C@@H]2[C@H]1C(=O)N(Cc1ccccc1)[C@H]2c1ccccc1Br, the cytoprotection (ATP increase) falls from -118% to -350%.

Going from COc1ccc(-c2cccc(-c3cc(=O)oc4ccc(C(C)(C)C)cc34)c2)cc1 to COc1cc(OC)c2c(-c3cccc(-c4sccc4C(C)=O)c3)cc(=O)oc2c1, the cytoprotection (ATP increase) falls from -47.7% to -275%.

First: O=c1ccn([C@@H]2O[C@H](COP(=O)(O)OP(=O)(O)OP(=O)(O)O)[C@@H](O)[C@H]2O)c(=O)[nH]1
Second: COC[C@H]1OC=C[C@@H](OC)[C@@H]1OC
The cytoprotection (ATP increase) of the first is lower: -46% for the first, 36.8% for the second.

First: CCN(CC)c1ccc(/C=N/NC(=O)CNC(=O)c2ccccn2)cc1
Second: CCOC(=O)Cn1c(-c2ccccn2)nc2ccccc21
The cytoprotection (ATP increase) of the first is lower: -50.7% for the first, 52.2% for the second.

Going from CC/C(=C(\c1ccccc1)c1ccc(OCCN(C)C)cc1)c1ccccc1 to O=C(O)C1CC[C@@](C(=O)O)(c2ccccc2)c2ccccc21 (stereo not given in full), the cytoprotection (ATP increase) rises from -183% to -21.9%.

Compared with COCCN1C(=O)N[C@@H](c2ccc(Br)cc2)C(C(=O)OC)=C1C, COC(=O)[C@H](COC(C)(C)C)NC(=O)O[C@H]1C(=O)c2cc(OC)ccc2O[C@@H]1c1ccc(OC)c(Br)c1 is lower in cytoprotection (ATP increase): 36.1% for the first, -46.6% for the second.

Going from O=C(O)[C@H]1CC=C[C@H]2CCN(Cc3ccc(Cl)c(Cl)c3)C(=O)[C@@H]12 to O=C(Nc1ccc(O)c2c(=O)cc(-c3ccccc3Cl)oc12)c1ccccc1Cl, the cytoprotection (ATP increase) falls from 32.4% to -26.9%.

First: C=C(C(C)=O)C(O)c1ccc(Cl)cc1 (stereo not given)
Second: COc1ccc(C(=O)c2ccccc2O)c(O)c1
The cytoprotection (ATP increase) of the first is higher: 32.3% for the first, -6.12% for the second.

First: CN1CCOC(c2ccccc2)c2ccccc2C1 (stereo not given)
Second: O=c1c2ccccc2nc2n1CCc1c-2[nH]c2ccccc12
The cytoprotection (ATP increase) of the first is higher: -32.3% for the first, -132% for the second.

First: CCCCC/C=C\C\C=C/C=C/C=C/[C@@H](SCC(NC(=O)CCC(N)C(=O)O)C(=O)NCC(=O)O)[C@@H](O)CCCC(=O)O (stereo not given in full)
Second: C[C@H](CCC(=O)O)[C@H]1CC[C@H]2[C@@H]3CC[C@@H]4C[C@H](O)CC[C@]4(C)[C@H]3CC[C@]12C
The cytoprotection (ATP increase) of the first is higher: 55% for the first, -105% for the second.

Compared with NCCNS(=O)(=O)c1cccc2c(Cl)cccc12, COc1c2ccoc2cc2oc(=O)ccc12 is lower in cytoprotection (ATP increase): -34.8% for the first, -52.6% for the second.

With c1ccc(Oc2nc(NC3CCCCC3)c3[nH]cnc3n2)cc1 the cytoprotection (ATP increase) was -82.8%.

In the case of CCCC[C@@H](C=O)NC(=O)[C@H](CC(C)C)NC(=O)[C@H](CC(C)C)NC(C)=O (Ac-Leu-Leu-[Nle]-aldehyde), the cytoprotection (ATP increase) is reported as -211% and -91.4%.

For O=c1[nH]cnc2c1ncn2C1OC(CO)C(O)C1O (stereo not given), the Potency was active: 8.91 µM.
In the case of O=C(Nc1ccccc1C(=O)O)c1ccc(NC(=O)c2ccc(Br)o2)cc1, the Potency is reported as active: 2.24 µM.
With COC(=O)C1(C(=O)OC)C[C@@H]2CON=C2[C@H]1c1ccccc1 the Potency was active: 20 µM.
For O=C(COC(=O)CCc1nc2ccccc2n1-c1ccccc1)Nc1ccc(N2CCCCC2)cc1, the Potency was active: 3.16 µM.
In the case of COC(=O)Cc1sc(-c2ccccn2)nc1-c1ccccc1, the Potency is reported as active: 1 µM.
With Cc1cc(C)nc(-n2ncc3c2CCCC3=O)n1 the Potency was active: 25.1 µM.
With Cc1ccc(NC(=S)NCCSc2ccc(Cl)cc2)c(C)c1 the Potency was active: 1.78 µM.
With COc1cc(/C=C/c2[nH]c(=O)[nH]c(=O)c2[N+](=O)[O-])ccc1OCCC(C)C the Potency was active: 12.6 µM.
For O=C1C2=CC[C@@H]3C(=O)N(c4ccc(F)cc4F)C(=O)[C@H]3[C@H]2[C@H](O)[C@H]2O[C@H]12, the Potency was active: 3.16 µM.
